In publication PMC4139204, “Insight into the Architecture of the NuRD Complex” (The Journal of Biological Chemistry, 2014):
No constants are given. Whether binding was seen depends on the method and setting. In cells and extracts the contact can be indirect. Here binding means that the protein was enriched with, or labelled near, the bait; the list need not be complete. For part of these data: A no says only that the protein was not detected with the bait.

By UniProt entry, the sequences of proteins in these tests, tags left out. Where a name states a change or a piece, a line headed by the entry shows the natural chain unless it says otherwise. Chains listed by the source or under a name are the forms on record and can include a tag or linker.
UniProt Q24572: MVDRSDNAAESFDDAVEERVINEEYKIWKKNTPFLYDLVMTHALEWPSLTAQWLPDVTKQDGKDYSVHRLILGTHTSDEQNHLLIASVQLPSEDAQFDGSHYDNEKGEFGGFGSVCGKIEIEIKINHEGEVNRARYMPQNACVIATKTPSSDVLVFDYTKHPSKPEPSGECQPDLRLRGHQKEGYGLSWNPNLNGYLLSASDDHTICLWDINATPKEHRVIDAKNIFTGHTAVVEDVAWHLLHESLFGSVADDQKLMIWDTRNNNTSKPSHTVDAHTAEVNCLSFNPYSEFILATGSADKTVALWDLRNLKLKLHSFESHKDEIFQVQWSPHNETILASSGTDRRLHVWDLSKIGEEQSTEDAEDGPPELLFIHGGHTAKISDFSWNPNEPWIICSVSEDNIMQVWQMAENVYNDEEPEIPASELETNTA
protein A-tagged Nurf55mut (Q24572, form named): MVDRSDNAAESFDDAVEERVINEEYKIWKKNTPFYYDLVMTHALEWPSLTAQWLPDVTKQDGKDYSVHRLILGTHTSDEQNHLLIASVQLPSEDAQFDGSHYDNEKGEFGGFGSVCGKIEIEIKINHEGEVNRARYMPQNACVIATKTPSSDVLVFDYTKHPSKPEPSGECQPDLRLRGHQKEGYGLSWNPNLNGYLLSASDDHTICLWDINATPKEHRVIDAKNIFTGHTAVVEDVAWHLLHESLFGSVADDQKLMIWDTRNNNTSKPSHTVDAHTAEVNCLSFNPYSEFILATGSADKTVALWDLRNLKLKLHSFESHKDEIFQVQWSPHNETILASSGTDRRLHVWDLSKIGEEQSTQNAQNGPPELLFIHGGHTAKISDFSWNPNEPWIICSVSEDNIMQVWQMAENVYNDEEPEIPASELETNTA
UniProt O97159: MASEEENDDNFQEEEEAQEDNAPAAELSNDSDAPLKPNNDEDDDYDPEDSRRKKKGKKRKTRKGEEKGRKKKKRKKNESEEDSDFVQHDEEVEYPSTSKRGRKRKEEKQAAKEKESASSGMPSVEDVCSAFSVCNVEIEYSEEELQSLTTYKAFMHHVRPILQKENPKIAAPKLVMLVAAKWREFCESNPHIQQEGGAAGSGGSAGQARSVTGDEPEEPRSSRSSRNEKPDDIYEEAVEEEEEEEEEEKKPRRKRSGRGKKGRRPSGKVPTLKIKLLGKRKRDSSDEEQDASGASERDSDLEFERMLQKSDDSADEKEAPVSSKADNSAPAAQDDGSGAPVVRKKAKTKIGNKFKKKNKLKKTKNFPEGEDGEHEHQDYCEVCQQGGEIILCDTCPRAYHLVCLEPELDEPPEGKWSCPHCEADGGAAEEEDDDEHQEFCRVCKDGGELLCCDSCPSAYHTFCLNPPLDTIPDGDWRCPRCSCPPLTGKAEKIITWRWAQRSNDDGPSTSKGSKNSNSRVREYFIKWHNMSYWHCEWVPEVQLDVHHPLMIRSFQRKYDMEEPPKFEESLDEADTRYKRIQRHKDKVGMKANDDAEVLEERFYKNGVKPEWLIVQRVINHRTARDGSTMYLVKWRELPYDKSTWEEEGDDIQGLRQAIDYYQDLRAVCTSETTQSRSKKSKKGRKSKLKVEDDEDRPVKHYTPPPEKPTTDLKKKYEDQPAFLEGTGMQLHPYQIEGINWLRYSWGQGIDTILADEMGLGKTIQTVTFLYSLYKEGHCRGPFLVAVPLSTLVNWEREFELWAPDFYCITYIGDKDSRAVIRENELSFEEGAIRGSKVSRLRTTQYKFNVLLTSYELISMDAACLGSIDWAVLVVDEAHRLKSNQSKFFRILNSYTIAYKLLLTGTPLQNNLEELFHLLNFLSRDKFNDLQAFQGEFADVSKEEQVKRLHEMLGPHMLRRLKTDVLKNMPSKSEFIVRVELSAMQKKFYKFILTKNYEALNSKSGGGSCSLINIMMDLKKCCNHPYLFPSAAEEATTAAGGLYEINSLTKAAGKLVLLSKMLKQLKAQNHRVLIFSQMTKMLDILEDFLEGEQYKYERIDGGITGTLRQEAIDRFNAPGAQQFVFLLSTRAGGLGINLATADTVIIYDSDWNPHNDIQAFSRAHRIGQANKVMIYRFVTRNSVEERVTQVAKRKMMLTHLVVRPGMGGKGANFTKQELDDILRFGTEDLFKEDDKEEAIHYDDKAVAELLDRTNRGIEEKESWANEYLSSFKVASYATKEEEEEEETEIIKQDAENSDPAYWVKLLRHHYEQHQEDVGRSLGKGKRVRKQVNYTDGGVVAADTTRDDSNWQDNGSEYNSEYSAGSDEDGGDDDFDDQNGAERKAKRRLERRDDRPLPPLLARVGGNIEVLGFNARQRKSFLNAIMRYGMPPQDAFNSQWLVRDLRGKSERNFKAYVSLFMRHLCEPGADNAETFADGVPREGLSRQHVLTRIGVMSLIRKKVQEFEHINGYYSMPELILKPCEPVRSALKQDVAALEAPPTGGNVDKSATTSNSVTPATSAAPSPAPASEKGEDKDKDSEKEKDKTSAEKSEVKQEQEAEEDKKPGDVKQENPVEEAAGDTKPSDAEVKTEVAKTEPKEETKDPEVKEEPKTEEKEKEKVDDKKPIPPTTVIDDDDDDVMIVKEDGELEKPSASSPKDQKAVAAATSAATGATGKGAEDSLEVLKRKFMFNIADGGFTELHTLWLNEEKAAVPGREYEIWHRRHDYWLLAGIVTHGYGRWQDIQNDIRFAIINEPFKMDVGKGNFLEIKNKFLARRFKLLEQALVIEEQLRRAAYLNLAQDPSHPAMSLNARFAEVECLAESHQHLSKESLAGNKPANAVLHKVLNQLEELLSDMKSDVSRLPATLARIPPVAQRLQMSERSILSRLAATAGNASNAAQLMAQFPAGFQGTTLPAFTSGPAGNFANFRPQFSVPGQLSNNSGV
UniProt Q94517: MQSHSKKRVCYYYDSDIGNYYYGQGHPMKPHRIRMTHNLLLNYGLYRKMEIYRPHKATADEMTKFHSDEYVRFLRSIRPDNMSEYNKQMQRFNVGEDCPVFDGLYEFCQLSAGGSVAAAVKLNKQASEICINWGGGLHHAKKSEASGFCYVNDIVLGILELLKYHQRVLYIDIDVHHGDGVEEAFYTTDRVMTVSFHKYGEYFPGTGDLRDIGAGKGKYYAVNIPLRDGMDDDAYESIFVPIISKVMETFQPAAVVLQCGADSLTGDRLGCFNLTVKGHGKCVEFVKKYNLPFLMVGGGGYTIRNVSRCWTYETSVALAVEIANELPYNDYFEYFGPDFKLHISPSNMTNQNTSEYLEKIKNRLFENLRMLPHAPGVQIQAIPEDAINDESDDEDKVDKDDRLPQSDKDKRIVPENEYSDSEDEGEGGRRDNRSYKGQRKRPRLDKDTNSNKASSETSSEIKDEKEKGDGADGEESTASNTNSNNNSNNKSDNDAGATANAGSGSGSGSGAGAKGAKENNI

Tests used:
[1] = target: protein A-tagged Nurf55mut (D. melanogaster) (UniProt Q24572); experiment: affinity purification with mass spectrometry; protein A-tagged Nurf55 or Nurf55mut stably expressed in Dmel-2 cells; purified on IgG beads; interactors identified by mass spectrometry
[2] = target: protein A-tagged wild-type Nurf55 (D. melanogaster) (UniProt Q24572); experiment: as above
[3] = target: GFP-tagged wild-type Nurf55 (D. melanogaster) (UniProt Q24572); experiment: affinity purification with mass spectrometry; GFP-tagged Nurf55 or Nurf55mut stably expressed in Dmel-2 cells; purified on beads with a covalently attached anti-GFP nanobody; mass spectrometry, in triplicate

binding [1] | binding [2] | binding [3] | Substance
no binding | binds | binds | Mi-2 (dCHD) (from UniProt O97159 1-1982)
no binding | binds | binds | Rpd3 (dHDAC) (from UniProt Q94517 1-521)
